Patent publication US20250152591A1, “TREATMENT OF HEMATOLOGICAL MALIGNANCIES WITH MENIN INHIBITORS AND P-GLYCOPROTEIN INHIBITORS” (Kura Oncology, Inc., priority 2022, published 2025)

Chains of the proteins cited; added tags and fusions are not shown.
UniProt P08183, whole entry: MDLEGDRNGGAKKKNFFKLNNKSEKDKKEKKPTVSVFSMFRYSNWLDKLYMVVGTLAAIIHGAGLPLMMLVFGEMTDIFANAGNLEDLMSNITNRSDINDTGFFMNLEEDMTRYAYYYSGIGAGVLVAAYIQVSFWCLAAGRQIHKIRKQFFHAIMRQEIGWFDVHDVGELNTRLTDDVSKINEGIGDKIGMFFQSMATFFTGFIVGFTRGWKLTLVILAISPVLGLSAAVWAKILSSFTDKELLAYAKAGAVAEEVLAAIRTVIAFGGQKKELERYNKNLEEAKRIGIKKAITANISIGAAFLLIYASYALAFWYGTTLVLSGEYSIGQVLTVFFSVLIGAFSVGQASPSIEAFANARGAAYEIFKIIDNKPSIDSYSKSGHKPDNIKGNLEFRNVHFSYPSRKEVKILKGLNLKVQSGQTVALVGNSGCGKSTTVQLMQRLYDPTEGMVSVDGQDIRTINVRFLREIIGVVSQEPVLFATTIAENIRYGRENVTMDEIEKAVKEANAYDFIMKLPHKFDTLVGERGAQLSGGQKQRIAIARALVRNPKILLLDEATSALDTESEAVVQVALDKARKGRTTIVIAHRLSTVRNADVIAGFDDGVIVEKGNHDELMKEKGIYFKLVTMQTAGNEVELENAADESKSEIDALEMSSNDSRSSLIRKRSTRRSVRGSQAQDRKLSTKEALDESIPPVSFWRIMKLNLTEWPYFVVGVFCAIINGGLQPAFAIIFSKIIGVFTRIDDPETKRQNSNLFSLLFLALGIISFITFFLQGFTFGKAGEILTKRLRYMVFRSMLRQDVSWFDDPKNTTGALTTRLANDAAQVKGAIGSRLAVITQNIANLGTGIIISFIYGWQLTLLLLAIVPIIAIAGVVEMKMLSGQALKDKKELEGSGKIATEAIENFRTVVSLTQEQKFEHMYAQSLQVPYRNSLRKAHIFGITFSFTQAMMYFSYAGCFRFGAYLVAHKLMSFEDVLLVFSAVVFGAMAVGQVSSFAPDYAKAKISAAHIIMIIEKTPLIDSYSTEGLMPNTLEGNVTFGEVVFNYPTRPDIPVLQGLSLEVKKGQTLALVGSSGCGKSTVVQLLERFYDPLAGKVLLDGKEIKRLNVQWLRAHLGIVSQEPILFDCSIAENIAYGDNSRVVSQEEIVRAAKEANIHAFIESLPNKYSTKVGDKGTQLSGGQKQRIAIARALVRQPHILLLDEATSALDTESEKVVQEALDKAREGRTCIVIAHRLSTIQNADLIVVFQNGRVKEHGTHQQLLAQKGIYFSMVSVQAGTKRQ

Target: P-gp (Homo sapiens, UniProt P08183)
Assay: P-gp substrate assessment using MDR1-MDCK monolayers (Example 1, +/- valspodar)
Format: in vitro ADME
Parameters: expressed in transfected cells; host or cells: MDR1-MDCK cells
Conditions: dog; 12-well plates, QC of MDR1-MDCK cell batch; read-out: Papp (cell batch quality control)
Description: MDR1-MDCK cell monolayers were grown to confluence on collagen-coated, microporous membranes in 12-well assay plates. Details of the plates and their certification are shown below. The permeability assay buffer was Hanks' balanced salt solution (HBSS) containing 10 mM HEPES and 15 mM glucose at a pH of 7.4. The buffer in the receiver chamber also contained 1% bovine serum albumin. The dosing solution concentration was 5 μM of test article in the assay buffer+/−1 μM valspodar. Cells were first pre-incubated for 30 min with HBSS containing+/−1 μM valspodar. Cell monolayers were dosed on the apical side (A-to-B) or basolateral side (B-to-A) and incubated at 37° C. with 5% CO2 in a humidified incubator. Samples were taken from the donor and receiver chambers at 120 min. Each determination was performed in duplicate. The flux of lucifer yellow was also measured post-experimentally for each monolayer to ensure no damage was inflicted to the cell monolayers during the flux period. All samples were assayed by LC-MS/MS using electrospray ionization. […]
The apparent permeability (Papp) and percent recovery were calculated as follows: […]

Papp: 0.05 ×10⁻⁶ cm/s
SMILES: CC(C)NCC(O)COc1ccc(CC(N)=O)cc1 (stereo not shown) [Atenolol]
